No constants are given. Whether binding was seen depends on the method and setting. Binding seen in cells or lysates may run through a third protein. Here binding means that the protein was enriched with, or labelled near, the bait; the list need not be complete.

The chains behind the UniProt entries cited, without tags or fusion partners.
UniProt Q8BKJ9: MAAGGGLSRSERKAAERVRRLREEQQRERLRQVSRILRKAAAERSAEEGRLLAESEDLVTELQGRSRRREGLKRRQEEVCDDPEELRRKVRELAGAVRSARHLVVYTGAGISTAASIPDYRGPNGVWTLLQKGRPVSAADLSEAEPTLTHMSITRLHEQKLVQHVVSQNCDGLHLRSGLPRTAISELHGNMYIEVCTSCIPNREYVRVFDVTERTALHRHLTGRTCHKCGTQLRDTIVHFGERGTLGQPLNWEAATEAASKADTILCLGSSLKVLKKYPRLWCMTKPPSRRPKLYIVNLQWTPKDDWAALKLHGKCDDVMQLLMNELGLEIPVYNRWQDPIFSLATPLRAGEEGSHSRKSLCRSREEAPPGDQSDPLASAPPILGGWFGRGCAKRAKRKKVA

This passage reports binding results from paper PMC3374257.

The target of this experiment is T1, Sirt1 (UniProt Q923E4).
T1 sequence: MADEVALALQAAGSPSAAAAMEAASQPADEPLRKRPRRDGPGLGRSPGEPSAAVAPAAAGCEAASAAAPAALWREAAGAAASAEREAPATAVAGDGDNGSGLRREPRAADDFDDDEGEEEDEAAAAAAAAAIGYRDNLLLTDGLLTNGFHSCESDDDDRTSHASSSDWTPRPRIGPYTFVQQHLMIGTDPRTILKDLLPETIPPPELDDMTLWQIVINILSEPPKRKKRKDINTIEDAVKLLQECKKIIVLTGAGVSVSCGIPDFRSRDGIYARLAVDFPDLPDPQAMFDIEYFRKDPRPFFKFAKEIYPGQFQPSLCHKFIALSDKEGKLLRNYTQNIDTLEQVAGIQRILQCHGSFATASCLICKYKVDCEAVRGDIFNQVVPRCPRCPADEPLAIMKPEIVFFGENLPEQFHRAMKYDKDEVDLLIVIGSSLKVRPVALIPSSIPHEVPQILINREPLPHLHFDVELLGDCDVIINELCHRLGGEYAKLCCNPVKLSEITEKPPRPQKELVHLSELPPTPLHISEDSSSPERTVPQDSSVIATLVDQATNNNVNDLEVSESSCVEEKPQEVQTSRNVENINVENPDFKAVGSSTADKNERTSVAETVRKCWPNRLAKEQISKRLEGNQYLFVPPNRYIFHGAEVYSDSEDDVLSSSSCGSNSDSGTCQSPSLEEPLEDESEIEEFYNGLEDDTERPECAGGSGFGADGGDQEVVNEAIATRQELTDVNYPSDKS
Nature of the experiment: affinity purification with mass spectrometry; unbiased screen for Sirt1 interactors; label free quantitative mass spectrometry based co-immunoprecipitation; Sirt1 as bait.

Turning to Sirt7 (from UniProt Q8BKJ9 1-402), the binding result is given as “binds”.
